Measurements: publication PMC12789588
These are yes or no findings as the source states them, for the method shown. In cells and extracts the contact can be indirect. Some binding calls cover weakened binding; strength is not graded here.

The chains behind the UniProt entries cited, without tags or fusion partners. Residues count along the entry.
UniProt Q64487, residues 21-1912: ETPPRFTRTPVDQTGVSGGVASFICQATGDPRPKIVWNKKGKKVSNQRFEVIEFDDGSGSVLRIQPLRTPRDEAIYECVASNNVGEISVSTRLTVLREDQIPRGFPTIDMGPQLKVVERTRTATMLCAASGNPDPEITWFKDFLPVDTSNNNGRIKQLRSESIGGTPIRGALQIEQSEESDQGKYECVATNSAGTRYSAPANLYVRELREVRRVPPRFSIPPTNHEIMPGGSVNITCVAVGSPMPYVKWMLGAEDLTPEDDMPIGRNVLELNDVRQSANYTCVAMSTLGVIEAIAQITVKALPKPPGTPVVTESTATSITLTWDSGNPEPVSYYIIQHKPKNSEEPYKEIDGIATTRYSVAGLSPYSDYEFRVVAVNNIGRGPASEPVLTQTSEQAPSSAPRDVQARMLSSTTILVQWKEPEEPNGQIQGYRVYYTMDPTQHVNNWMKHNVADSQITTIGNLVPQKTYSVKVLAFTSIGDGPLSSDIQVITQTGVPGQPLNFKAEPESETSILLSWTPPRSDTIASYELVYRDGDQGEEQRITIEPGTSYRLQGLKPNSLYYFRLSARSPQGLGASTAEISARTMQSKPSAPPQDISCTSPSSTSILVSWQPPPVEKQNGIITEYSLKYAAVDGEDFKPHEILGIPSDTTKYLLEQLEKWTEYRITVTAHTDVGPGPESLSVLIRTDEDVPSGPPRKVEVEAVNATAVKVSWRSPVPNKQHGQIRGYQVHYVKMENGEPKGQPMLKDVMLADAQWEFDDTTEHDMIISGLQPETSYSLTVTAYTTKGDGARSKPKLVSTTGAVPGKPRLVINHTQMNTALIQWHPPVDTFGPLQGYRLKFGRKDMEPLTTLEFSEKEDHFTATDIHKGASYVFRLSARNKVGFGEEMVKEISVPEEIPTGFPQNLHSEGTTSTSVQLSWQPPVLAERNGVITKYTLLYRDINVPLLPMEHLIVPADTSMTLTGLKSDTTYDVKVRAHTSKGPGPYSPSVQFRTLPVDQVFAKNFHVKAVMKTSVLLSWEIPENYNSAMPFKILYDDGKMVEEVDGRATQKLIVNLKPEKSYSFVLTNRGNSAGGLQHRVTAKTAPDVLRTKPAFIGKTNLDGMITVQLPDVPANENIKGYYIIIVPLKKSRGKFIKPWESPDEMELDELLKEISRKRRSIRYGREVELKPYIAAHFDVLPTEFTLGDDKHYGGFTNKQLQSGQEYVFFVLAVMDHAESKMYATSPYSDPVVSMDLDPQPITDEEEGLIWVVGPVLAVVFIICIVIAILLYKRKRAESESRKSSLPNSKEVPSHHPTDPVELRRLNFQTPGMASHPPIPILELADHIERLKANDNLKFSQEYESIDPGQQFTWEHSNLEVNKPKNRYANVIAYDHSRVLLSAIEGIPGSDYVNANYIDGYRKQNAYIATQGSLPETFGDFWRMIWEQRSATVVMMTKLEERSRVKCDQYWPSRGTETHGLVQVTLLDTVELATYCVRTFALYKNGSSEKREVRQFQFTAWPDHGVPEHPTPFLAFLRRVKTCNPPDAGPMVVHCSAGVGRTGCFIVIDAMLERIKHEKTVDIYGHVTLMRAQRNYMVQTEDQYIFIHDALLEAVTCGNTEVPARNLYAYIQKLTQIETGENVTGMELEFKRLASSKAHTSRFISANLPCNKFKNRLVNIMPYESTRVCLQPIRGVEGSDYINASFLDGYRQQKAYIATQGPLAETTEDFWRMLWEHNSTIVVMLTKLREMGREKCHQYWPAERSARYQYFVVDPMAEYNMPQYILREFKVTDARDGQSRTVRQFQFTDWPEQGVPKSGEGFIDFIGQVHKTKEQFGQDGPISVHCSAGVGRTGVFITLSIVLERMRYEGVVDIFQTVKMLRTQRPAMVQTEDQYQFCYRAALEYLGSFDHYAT

Target: protein tyrosine phosphatase receptor delta (PTPRD), overexpressed in HEK293T cells (UniProt Q64487)
Assay: co-IP; MARCH2 and PTPRD both overexpressed in HEK293T cells; NP40 lysis with sonication; 1 mg lysate with anti-FLAG antibody, anti-MYC antibody or nonimmune IgG at 4 °C overnight; Protein A/G magnetic beads; five washes with lysis buffer; Western blot

binding: binds
B1: membrane-associated RING finger protein 2 (MARCH2), overexpressed in HEK293T cells (enzyme, UniProt Q99M02 1-246)
chain: MTTGDCCHLPGSLCDCSSSPAFSKVVEATGLGPPQYVAQVTSRDGRLLSTVIRALDSQSDCPFCRICHEGANGENLLSPCGCTGTLGAVHKSCLEKWLSSSNTSYCELCHTEFAVEKRPRPLTEWLKDPGPRTEKRTLCCDMVCFVFITPLAAISGWLCLRGAQDHLRLHSRLEAVGLIALTIALFTIYVLWTLVSFRYHCQLYSEWRKTNQKVRLKIREADGSEDPHHSLLATGLLKKVAEETPV
